Consider one molecule from article PMC4401672.

No constants are given. Whether binding was seen depends on the method and setting. In cells and extracts the contact can be indirect. Some binding calls cover weakened binding; strength is not graded here. For some assays here: Where a sequence is shown, tags or fusion partners need not be part of it.

For assay [1], the target named is T1, Tag-PDZK1 (TAP tag linked to full-length PDZK1), expressed in primary mouse VSM cells (UniProt Q9JIL4).
T1 sequence: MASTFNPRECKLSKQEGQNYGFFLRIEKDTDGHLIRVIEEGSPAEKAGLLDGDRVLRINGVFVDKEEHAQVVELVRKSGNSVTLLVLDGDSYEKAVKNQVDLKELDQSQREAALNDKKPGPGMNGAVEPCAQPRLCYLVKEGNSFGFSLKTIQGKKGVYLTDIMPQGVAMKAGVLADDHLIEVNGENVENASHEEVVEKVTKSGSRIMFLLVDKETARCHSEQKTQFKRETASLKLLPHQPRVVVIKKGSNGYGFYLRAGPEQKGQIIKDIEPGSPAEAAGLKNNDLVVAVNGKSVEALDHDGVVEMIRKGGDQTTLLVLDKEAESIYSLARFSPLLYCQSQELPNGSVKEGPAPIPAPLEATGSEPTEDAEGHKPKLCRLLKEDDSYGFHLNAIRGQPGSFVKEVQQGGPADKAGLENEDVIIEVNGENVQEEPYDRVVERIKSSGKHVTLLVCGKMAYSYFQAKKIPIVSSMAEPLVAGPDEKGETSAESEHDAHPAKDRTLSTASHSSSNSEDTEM
Nature of the assay: pull-down; primary mouse VSM cells infected with adenovirus for Tag alone or Tag-PDZK1; lysed 60h later (50 mM HEPES-KOH pH 7.5, 100 mM KCl, 0.1% NP-40); IgG-Sepharose 4h at 4°C; immunoblot with anti-Bcr. Background: Immunoblotting shows a protein as a band on a membrane.

The target in assay [2] is T2, PDZK1, endogenous in primary mouse VSM cells (mouse (endogenous in primary VSM cells)) (UniProt Q9JIL4).
T2 sequence: T1 sequence
The experiment in a line: co-IP; endogenous proteins in primary mouse VSM cell lysate (1% TX-100, 150 mM NaCl, 100 mM Tris-HCl pH 8); IP with anti-Bcr or anti-PDZK1 antibody and Protein A/G agarose, 4°C, 2h; immunoblot for Bcr and PDZK1; PDZK1+/+ and PDZK1-/- cells.

B1: breakpoint cluster region kinase (Bcr), endogenous in primary mouse VSM cells (protein, UniProt Q6PAJ1 1-1270)
chain: MVDSVGFAEAWRAQFPDSEPPRMELRSVGDIEQELERCKASIRRLEQEVNQERFRMIYLQTLLAKEKKSYDRQRWGFRRAAQPPDGAAEPRASAPRPPPAPADGADPAPVEESEARPDGEGSPSKGRSASARRPAAAASADRDDRGPPTSVAALRSNFEKIRKGPAQPGSADAEKPFYVNVEFHHERGLVKVNDKEVSDRISSLGSQAMQMERKKSQQSAGQGLGEAPRPHYRGRSSESSCGLDGDYEDAELNPRFLKDNLINANGGNRPPWPPLEYQPYQSIYVGGMMVEGEGKSPLLRSQSTSEQEKRLTWPRRSYSPRSFEDSGGGYTPDCSSNENLTSSEEDFSSGQSSRVSPSPTTYRMFRDKSRSPSQNSQQSFDSSSPPTPQCQKRHRQCQVVVSEATIVGVRKTGQIWPSDGDSTFQGEADSSFGTPPGYGCAADQAEEQRRHQDGLPYIDDSPSSSPHLSSKGRGSLASGALDPTKVSELDLEKGLEMRKWVLSGILASEETYLSHLEALLLPMKPLKAAATTSQPVLTSQQIETIFFKVPELYEIHKEFYDGLFPRVQQWSHQQRVGDLFQKLASQLGVYRAFVDNYGVAMETAEKCCQANAQFAEISENLRARSNKDVKDSTTKNSLETLLYKPVDRVTRSTLVLHDLLKHTPSSHPDHSLLQDALRISQNFLSSINEEITPRRQSMTVKKGEHRQLLKDSFMVELVEGARKLRHIFLFTDLLLCTKLKKQSGGKTQQYDCKWYIPLTDLSFQMVDELEALPNIPLVPDEELDALKIKISQIKSDIQREKRANKGSKVMERLRKKLSEQESLLLLMSPSMAFRVHSRNGKSYTFLISSDYERAEWRESIREQQKKCFKSFSLTSVELQMLTNSCVKLQTVHHIPLTINKEDDESPGLYGFLHVIVHSATGFKQSSNLYCTLEVDSFGYFVNKAKTRVYRDTTEPNWNEEFEIELEGSQTLRILCYEKCYNKMKMTKEDGESADKLMGKGQVQLDPQTLQDRDWQRTVIDMNGIEVKLSVKFTSREFSLKRMPSRKQTGVFGVKIAVVTKRERSKVPYIVRQCVEEIERRGMEEVGIYRVSGVATDIQALKAAFDVNNKDVSVMMSEMDVNAIAGTLKLYFRELPEPLFTDEFYPNFAEGIALSDPVAKESCMLNLLLSLPEANLLTFLFLLDHLKRVAEKETVNKMSLHNLATVFGPTLLRPSEKESKLPANPSQPITMTDSWSLEVMSQVQVLLYFLQLEAIPAPDSKRQSILFSTEV
Regarding B1, the binding entry in assay [1] and in assay [2] was “binds” in each case.
